At least one compound was matched to its structure with a doubt left.
System: human sperm
Assay: Effect of quinones on sperm motility
Type: cell-based
Settings: 50 μM
Description: Following the preparation of spermatozoa by standard Percoll gradient they were resuspended in homologous seminal plasma to a concentration of 20 million per ml, immediately prior to the beginning of the experiment. 50 μl of the sperm suspension was placed in an eppendorf tube, and the quinone was either added alone or in combination with other reagents, for example, KI, HRP (Horseradish Peroxidase), BHT (butylated hydroxytoluene) etc. depending on the experiment. The volume was made up to 100 μl with BWW/PVA.
The quinone was always the final reagent to be added. […] The sample was gently agitated and 10 μl was placed on a slide and a motility was scored. The aim was to score a motility approximately 20 seconds following the addition of the quinone. There were two controls set up, one motility count taken at the beginning of the experiment (initial control) and one motility count taken at the end of the experiment (final control). The controls consisted of 50 μl of the sperm suspension followed by the addition of 50 μl BWW/PVA. The reason for having two controls was to observe if any changes in sperm motility had occurred simply as a factor of time, i.e. from residing in seminal plasma for a long duration. At all times during the experiment, the spermatozoa were incubated in a hot box at 24° C. […]

Structure (SMILES): O=C1C=CC(=O)c2c(O)cccc21 [juglone]
- maximal spermicidal effect, sperm immobilisation: completely immobilised
